Construct, isoform or probe ends are uncertain for at least one entry.
Legend:
PTBP1 [1] = test: UV crosslinking; settings: 600 nM protein, efficient; EM/nucleosome/UV: 25 mM HEPES pH 7.9, 50 mM KCl, 2 mM MgCl2, 10% glycerol, 1 mM TCEP, 30 C; recombinant protein; label: 5'-32P
PTBP1 [2] = test: EMSA; settings: Kd value only in figure; EMSA: 50 mM Tris-HCl pH 7.5 (25 C), 100 mM KCl, 2.5 mM MgCl2, 0.1 mM ZnCl2, 2 mM 2-mercaptoethanol, 0.05 mg/ml BSA, 0.05 mg/ml yeast tRNA, 5% glycerol, 30 C 30 min; recombinant protein; label: 5'-32P

## UCUUUCUUCUUUCUUCUUUCUUCUUUCUUCUUUCUUCUUUCU [(UCUUUCU)6]
PTBP1 [1]
  binding result: binds
PTBP1 [2]
  binding result: binds
